The target of the experiment is CRBN/DDB1 complex (UniProt Q96SW2). Description: FRET or BRET; TR-FRET association: 50 nM CoraFluor-1-labeled TBD or CRBN/DDB1, or 25 nM CoraFluor-1-labeled CRBNmidi; GFP protein titrated (1:2, 9-point, cmax 1 μM); 25 mM HEPES, 150 mM NaCl, 0.5 mg/mL BSA, 0.005% TWEEN 20, pH 7.5; background wells with 100 μM 5-NH2-lenalidomide; one-site specific binding fit; both purified. A general note: Bioluminescence resonance energy transfer reports proximity on the nanometre scale.

Sequences of proteins named here, by UniProt entry; tags and fusion partners are left off. A change or cut given only in a name is not applied to a line headed by its entry.
UniProt Q96SW2: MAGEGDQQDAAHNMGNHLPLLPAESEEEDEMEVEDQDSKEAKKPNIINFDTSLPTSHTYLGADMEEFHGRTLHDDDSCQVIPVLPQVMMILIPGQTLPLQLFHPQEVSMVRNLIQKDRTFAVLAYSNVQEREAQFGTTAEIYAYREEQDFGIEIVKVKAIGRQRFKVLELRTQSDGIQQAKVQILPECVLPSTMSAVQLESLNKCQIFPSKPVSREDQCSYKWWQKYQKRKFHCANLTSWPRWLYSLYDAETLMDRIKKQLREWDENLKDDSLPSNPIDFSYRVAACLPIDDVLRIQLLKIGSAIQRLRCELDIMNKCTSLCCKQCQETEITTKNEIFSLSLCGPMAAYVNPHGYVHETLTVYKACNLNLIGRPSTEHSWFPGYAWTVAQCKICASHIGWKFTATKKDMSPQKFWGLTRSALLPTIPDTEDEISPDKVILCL
UniProt P15104: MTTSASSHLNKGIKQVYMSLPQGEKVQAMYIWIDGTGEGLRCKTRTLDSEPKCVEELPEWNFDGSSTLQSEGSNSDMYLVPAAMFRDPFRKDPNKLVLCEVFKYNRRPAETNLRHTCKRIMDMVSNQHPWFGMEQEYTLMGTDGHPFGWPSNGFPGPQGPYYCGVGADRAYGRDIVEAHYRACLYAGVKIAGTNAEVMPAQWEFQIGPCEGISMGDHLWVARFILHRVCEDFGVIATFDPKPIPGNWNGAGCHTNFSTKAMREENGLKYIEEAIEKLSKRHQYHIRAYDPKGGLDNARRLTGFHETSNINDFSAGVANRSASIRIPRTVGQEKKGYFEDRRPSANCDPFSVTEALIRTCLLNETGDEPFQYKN

These are yes or no findings as the source states them, for the method shown. Some entries that bind do so weakly or less than the wild type.

Turning to “GFP-GLUL-cN (GFP-GLUL treated with PCMT1) (from UniProt P15104 1-373)”, the binding result is “binds”.

Source of the values: article doi:10.1101/2025.03.24.645063.
